Reference: patent US8415339B2, “Bactericidal anti-MRSA active pharmaceutical composition containing carbapenems” (priority 2007, dated 2013)
The name of at least one read-out is uncertain.

Key:
Staph. Innsbruck = experiment: Agar diffusion (plate/disk) test, inhibition zone; assay type: cell-based, Staph. aureus; conditions: carbapenem alone 10 μg per disk; 20 hrs at 37° C.
Protocol: (§1) Inhibition zone diameters were determined on Difco Nutrient Agar (10 ml) in sterile dishes (8.5 cm) using ca. 10^6-10^7 colony forming units. 0.2 ml of a bacterial suspension (overnight culture in Difco Nutrient Broth) was mixed at 52° C. with the sterile liquid agar. It solidified at room temperature. Sterile filter disks (6 mm) were placed on the agar surface. Appropriate volumes of a 0.2% aqueous solutions of antibiotics were transferred to the disks by a precision syringe. Alternatively, commercial impregnated disks (Oxoid) were used.
(§2) The inhibition zone diameter was measured after 20 hrs at 37° C. For determination of bactericidal activity, incubation at 37° C. was continued for additional 40 hrs. A clear inhibition zone after additional incubation indicated bactericidity (B).

MRSA 7268/02 = experiment: Agar diffusion (plate/disk) test, inhibition zone; assay type: cell-based, Staph. aureus; conditions: carbapenem alone 10 μg per disk; 20 hrs at 37° C.
Protocol: as §1, §2

C[C@@H](O)[C@H]1C(=O)N2C(C(=O)O)=C(S[C@@H]3CN[C@H](C(=O)N(C)C)C3)[C@H](C)[C@H]12 [Meropenem]
Diameter of inhibition zone (Staph. Innsbruck): 13 mm

C[C@@H](O)[C@H]1C(=O)N2C(C(=O)O)=C(SCCN=CN)C[C@H]12 [Imipenem]
Diameter of inhibition zone (Staph. Innsbruck): 14 mm
Diameter of inhibition zone (MRSA 7268/02): 14 mm
